Earlier results in patent US20120244553A1, “BIOMARKER OF ALLERGIC DISEASE AND USE OF THE SAME” (UNIVERSITY OF TOYAMA, priority 2007, published 2012).
For at least one compound, name, drawing or mass did not settle the structure.

System: mosquito salivary gland extract-induced scratching behavior
Settings: mouse; cited from earlier work

SMILES: C[C@@H]1C[C@H]2[C@@H]3CCC4=CC(=O)C=C[C@]4(C)[C@@]3(F)[C@@H](O)C[C@]2(C)[C@@]1(O)C(=O)CO [dexamethasone]
- Effect on scratching behavior increased by repetitive injections of mosquito salivary gland extract: is not suppressed
